# Assay results published in patent publication US6461859B1, “Enzymatic oxidation process for desulfurization of fossil fuels” (Instituto Mexicano del Petroleo, priority 1999, dated 2002).
# B1: chloroperoxidase: chloroperoxidase (EC 1.11.1.10) from Caldariomyces fumago, hemoprotein biocatalyst (protein, UniProt P04963 21-319, looked up)
# Chloroperoxidase: QEPGSGIGYPYDNNTLPYVAPGPTDSRAPCPALNALANHGYIPHDGRAISRETLQNAFLNHMGIANSVIELALTNAFVVCEYVTGSDCGDSLVNLTLLAEPHAFEHDHSFSRKDYKQGVANSNDFIDNRNFDAETFQTSLDVVAGKTHFDYADMNEIRLQRESLSNELDFPGWFTESKPIQNVESGFIFALVSDFNLPDNDENPLVRIDWWKYWFTNESFPYHLGWHPPSPAREIEFVTSASSAVLAASVTSTPSSLPSGAIGPGAEAVPLSFASTMTPFLLATNAPYYAQDPTLGPND
# Experiment: Biocatalytic oxidation of primary diesel fuel followed by distillation
# Details: oxidized by chloroperoxidase and hydrogen peroxide, distilled to a final temperature 50° C. lower than the original fraction
# Description: After biocatalytic oxidation of the fossil fuel a second process of separation of oxidized organosulfur compounds is envisaged. Because the boiling points of sulfur compounds are incersed after biocatlytic oxidation to sulfoxides, it is possible to remove them by a single distillation. Oxidized sulfur compounds can be removed by decreasing the final distillation point. When primary diesel fuel containing 1.6% sulfur is distilled in order to obtain a 100% distillation at a temperature 50° C. lower than the original fraction, it produces a diesel fuel containing 1.27% of sulfur and 83% of the original hydrocarbons. […] Thus, a biocatalytic treatment of primary diesel oil with chloroperoxidase from Caldariomyces fumago, followed by a distillation is able to reduce the sulfur content by 80%.
molecule,measurement,value
B1,sulfur content of distillate,0.27%
same,total hydrocarbons in distillate,71%
